According to paper doi:10.1101/555896:
No constants are given. Whether binding was seen depends on the method and setting. Binding seen in cells or lysates may run through a third protein. Some entries that bind do so weakly or less than the wild type.

Target: Flag-HA-tagged AGO1 (human) (UniProt Q9UL18)
Experiment: co-IP

- binding: binds
Substance: Ran-binding protein 2 (RanBP2) (from UniProt P49792 1-3224)
